Laboratory results: publication PMC7819943, “Rice protein-binding microarrays: a tool to detect cis-acting elements near promoter regions in rice”
The list shows a part of the results.

target: T1, OsSMF1 (Oryza sativa, UniProt Q6ZLB0 1-436); assay: protein-binding microarray (RPBM); PBS, 2% BSA, 51.3 ng/ul salmon testes DNA, 50 uM zinc acetate, 200 nM TF, 25 C, 1 h; high values mean tight binding; settings: protein: recombinant; tags: N-terminal polyhistidine and DsRed monomer fusion (pET32a); chain copies: 2; label: CyDye5-dUTP incorporated in the synthesized complementary strand; 3' TTTTT single-stranded linker to array surface; dsDNA, one strand shown
T1 sequence: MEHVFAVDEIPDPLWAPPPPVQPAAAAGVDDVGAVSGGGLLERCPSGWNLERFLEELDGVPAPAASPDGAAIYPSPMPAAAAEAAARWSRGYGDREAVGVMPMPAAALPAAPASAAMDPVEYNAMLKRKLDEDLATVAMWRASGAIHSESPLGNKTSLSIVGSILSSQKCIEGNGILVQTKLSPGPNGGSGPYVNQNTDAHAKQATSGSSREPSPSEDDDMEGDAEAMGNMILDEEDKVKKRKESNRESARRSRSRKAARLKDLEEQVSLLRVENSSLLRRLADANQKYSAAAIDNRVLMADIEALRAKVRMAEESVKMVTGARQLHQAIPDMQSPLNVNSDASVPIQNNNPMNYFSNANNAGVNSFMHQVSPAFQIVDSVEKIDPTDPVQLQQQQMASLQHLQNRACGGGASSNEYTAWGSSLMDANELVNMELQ
Summary of the method: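 The binding signal is fluorescence intensity per array feature (arbitrary units). Readings came from an Axon 4000B scanner after a washed, 2% BSA-blocked, double-stranded custom Agilent array had been incubated for 1 h at 25 °C with 200 nM protein and 50 µM zinc acetate. The protein was a Ni–NTA-purified transcription factor fused N-terminally to polyhistidine and DsRed, expressed in E. coli BL21-CodonPlus.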

**Q.** With “TCATTCCAACCAACTGACAGGCAGGAAAGAGACCTCAGTCCGGAGTCACCTAGTGCAG” as the sequence, how does the binding signal read?
**A.** Its binding signal is 37700 fluorescence intensity (a.u.).

**Q.** For “TGCACGACACCGCTGGTGAGTCATGCGACACGTGTCATCGCGGAGTCACCTAGTGCAG”, which binding signal is on record?
**A.** Its binding signal is 27600 fluorescence intensity (a.u.).

**Q.** With “AGCGTACTACGTGTATACCGGCGTCGGTCGATCGACGGCACGGAGTCACCTAGTGCAG” as the sequence, how does the binding signal read?
**A.** The binding signal was 3260 fluorescence intensity (a.u.).

**Q.** Which binding signal does the source give for “ATTGCGCAGGCGCAGCAATATTGAATGGCCCAAATGCTAGCGGAGTCACCTAGTGCAG” here?
**A.** The binding signal was 23800 fluorescence intensity (a.u.).

**Q.** With “TATTTTCGGGCTCACATGTTAGCCACCAAGTCAGAGGGAACGGAGTCACCTAGTGCAG” as the sequence, how does the binding signal read?
**A.** The binding signal was 3640 fluorescence intensity (a.u.).

**Q.** How did the binding signal turn out when “ATATGAGTCGATCAGATCGAGCTTCATATATACTAGACCACGGAGTCACCTAGTGCAG” was run?
**A.** Its binding signal is 3140 fluorescence intensity (a.u.).

**Q.** How did the binding signal turn out when “TGTCATTGACTCACGTGGGTCCTACATGTCATTGAGCTTTCGGAGTCACCTAGTGCAG” was run?
**A.** The binding signal was 10300 fluorescence intensity (a.u.).

**Q.** Which binding signal does the source give for “GACATTACAGATTAACTAGTAACATGGTCATTAGTTGTCACGGAGTCACCTAGTGCAG” here?
**A.** The binding signal was 3460 fluorescence intensity (a.u.).

**Q.** How did the binding signal turn out when “ACCCAGCGAGCTCACGTGACGCTGATAATAGTATAGATAGCGGAGTCACCTAGTGCAG” was run?
**A.** Its binding signal is 3500 fluorescence intensity (a.u.).

**Q.** How did the binding signal turn out when “CCTCAATTATTTGCAAGATGGGGTCATCACTATTGTAGTACGGAGTCACCTAGTGCAG” was run?
**A.** Its binding signal is 4460 fluorescence intensity (a.u.).

**Q.** With “TAGAATGTATGTTTGACGTCAGATGGTTTTAACTCCCTTGCGGAGTCACCTAGTGCAG” as the sequence, how does the binding signal read?
**A.** Its binding signal is 9400 fluorescence intensity (a.u.).

**Q.** For “GAAGTGATTGATATTTGAGCAATTAGTCCGTTGTCAGGGTCGGAGTCACCTAGTGCAG”, which binding signal is on record?
**A.** Its binding signal is 3300 fluorescence intensity (a.u.).

**Q.** Which binding signal does the source give for “ACAGGCATCCACCCTCCAAATTACATTACACAGTACCTAGCGGAGTCACCTAGTGCAG” here?
**A.** The binding signal was 4820 fluorescence intensity (a.u.).

**Q.** Which binding signal does the source give for “GAAACACGGAGATTTCAAGTGGAGTTCCGTAGTCATTTCACGGAGTCACCTAGTGCAG” here?
**A.** The binding signal was 3270 fluorescence intensity (a.u.).

**Q.** With “CCTTTCGGGCAAATTTCAGTGTCATATATATTCACTGACCCGGAGTCACCTAGTGCAG” as the sequence, how does the binding signal read?
**A.** Its binding signal is 3850 fluorescence intensity (a.u.).

**Q.** How did the binding signal turn out when “GCTGTCCTATGACATGGAGGACATCGCCGACACCTTCAAGCGGAGTCACCTAGTGCAG” was run?
**A.** The binding signal was 3420 fluorescence intensity (a.u.).

**Q.** With “TTAGAATGTCGGTCTCGCTGTTTGGCCATCCATCCGCGTGCGGAGTCACCTAGTGCAG” as the sequence, how does the binding signal read?
**A.** The binding signal was 22500 fluorescence intensity (a.u.).

**Q.** For “ACCTCCCTTATGATGAGTAATCTATTTACTGAACACATAACGGAGTCACCTAGTGCAG”, which binding signal is on record?
**A.** Its binding signal is 3150 fluorescence intensity (a.u.).

**Q.** With “TGGCCATCGCCTACGGTGAGCAGTCATCGTCGTCCATCCGCGGAGTCACCTAGTGCAG” as the sequence, how does the binding signal read?
**A.** Its binding signal is 4090 fluorescence intensity (a.u.).

**Q.** For “CCCTGCCCGCTCTTACACGGCACGTCTCATTCAAATATGACGGAGTCACCTAGTGCAG”, which binding signal is on record?
**A.** Its binding signal is 3360 fluorescence intensity (a.u.).

**Q.** “TGTTGGTAGCACAGTACACATCACGGTTCCGTAGCACCTGCGGAGTCACCTAGTGCAG” was tested. Which binding signal did it give?
**A.** Its binding signal is 6290 fluorescence intensity (a.u.).

**Q.** For “TGACTGCGATGACTGAGGATCTTTCAACAACACACAAGTGCGGAGTCACCTAGTGCAG”, which binding signal is on record?
**A.** Its binding signal is 3550 fluorescence intensity (a.u.).

**Q.** How did the binding signal turn out when “TTTTCCTACTTGCCCCTACACGTGGTAGAGAATACGGTTTCGGAGTCACCTAGTGCAG” was run?
**A.** Its binding signal is 6220 fluorescence intensity (a.u.).

**Q.** How did the binding signal turn out when “CGACTACTTGTTCTTTTCGACGTGTAACATTGATCAAATACGGAGTCACCTAGTGCAG” was run?
**A.** The binding signal was 3810 fluorescence intensity (a.u.).

**Q.** For “TGACGGCGACAAGAACAGTGATAGCGAATATGAGTCTGACCGGAGTCACCTAGTGCAG”, which binding signal is on record?
**A.** The binding signal was 7670 fluorescence intensity (a.u.).

**Q.** For “CAAGCTATAAACACAAGCTGATTCATTGCCTTTGCCTCTTCGGAGTCACCTAGTGCAG”, which binding signal is on record?
**A.** The binding signal was 4190 fluorescence intensity (a.u.).

**Q.** Which binding signal does the source give for “TCGGCATAATTTGTATGACGTGTCCTATCACAACAAACTCCGGAGTCACCTAGTGCAG” here?
**A.** Its binding signal is 13700 fluorescence intensity (a.u.).

**Q.** For “CGAGTTGCTCGTATATTTTAATAGCCGACCGTCGCCGTGGCGGAGTCACCTAGTGCAG”, which binding signal is on record?
**A.** The binding signal was 3580 fluorescence intensity (a.u.).

**Q.** With “GCACAAGCAAGCACACGTACGCCACAGAGCACACACAGCCCGGAGTCACCTAGTGCAG” as the sequence, how does the binding signal read?
**A.** Its binding signal is 3880 fluorescence intensity (a.u.).

**Q.** How did the binding signal turn out when “TTTTAAACCGAGCGACCCACGTAGACATAAGAGGTGGTTACGGAGTCACCTAGTGCAG” was run?
**A.** Its binding signal is 5220 fluorescence intensity (a.u.).

**Q.** Which binding signal does the source give for “TCGAATTTTCAGCCATATGATGATGTGTCAAGATTCGTGTCGGAGTCACCTAGTGCAG” here?
**A.** Its binding signal is 11900 fluorescence intensity (a.u.).

**Q.** Which binding signal does the source give for “GTTCCATCGCATGCTCAACTTGGGGCAGGTCAGGTAAGCTCGGAGTCACCTAGTGCAG” here?
**A.** Its binding signal is 3170 fluorescence intensity (a.u.).

**Q.** How did the binding signal turn out when “CTCGGGATTGCTAATTAGCGCACGTGTGTTTCCAACAAATCGGAGTCACCTAGTGCAG” was run?
**A.** The binding signal was 3320 fluorescence intensity (a.u.).

**Q.** “CAATTCGATTCGTATCCCCACGTGCTCTTTCTTCTTCCTCCGGAGTCACCTAGTGCAG” was tested. Which binding signal did it give?
**A.** Its binding signal is 4170 fluorescence intensity (a.u.).

**Q.** Which binding signal does the source give for “CCCACATTTCAGTCACTAACCATAGGTGACACAGCTTTCGCGGAGTCACCTAGTGCAG” here?
**A.** Its binding signal is 4570 fluorescence intensity (a.u.).

**Q.** How did the binding signal turn out when “AGGTTGTCAGTGCTGACTGCTGACTGTGCTTGCACAGTTACGGAGTCACCTAGTGCAG” was run?
**A.** The binding signal was 8180 fluorescence intensity (a.u.).

**Q.** “CCTATCGTGTGTTGCCGCGACCGCGCGCGACCCCGCGGCTCGGAGTCACCTAGTGCAG” was tested. Which binding signal did it give?
**A.** Its binding signal is 3810 fluorescence intensity (a.u.).

**Q.** How did the binding signal turn out when “AACCCAACTCAATGGCTCTAGCTTATTTTGTAATATCACTCGGAGTCACCTAGTGCAG” was run?
**A.** Its binding signal is 3480 fluorescence intensity (a.u.).

**Q.** How did the binding signal turn out when “CAACGTCTGCTGCACGGCTTATTGCGTGGCTGTGAACGTCCGGAGTCACCTAGTGCAG” was run?
**A.** The binding signal was 3280 fluorescence intensity (a.u.).

**Q.** “TCCACCGCTATCGGGTCGCACGTCACTGCTGGACTAACCACGGAGTCACCTAGTGCAG” was tested. Which binding signal did it give?
**A.** Its binding signal is 9370 fluorescence intensity (a.u.).

**Q.** “AGTCGTATTCTACACATGACTACGTAGTTCTACGTTTACGCGGAGTCACCTAGTGCAG” was tested. Which binding signal did it give?
**A.** The binding signal was 3770 fluorescence intensity (a.u.).

**Q.** “CGATTATACGGACGTTCTAATGCTCTCGTCACACAAACTACGGAGTCACCTAGTGCAG” was tested. Which binding signal did it give?
**A.** Its binding signal is 3840 fluorescence intensity (a.u.).
